Reference: publication PMC6171237
These are yes or no findings as the source states them, for the method shown. For some of these results: Binding seen in cells or lysates may run through a third protein. Some binding calls cover weakened binding; strength is not graded here. Values belong to the substance of their own block, whether it stands above or below them.

By UniProt entry, the sequences of proteins in these tests, tags left out. Where a name states a change or a piece, a line headed by the entry shows the natural chain unless it says otherwise. Residues count along the entry.
UniProt Q9NPG3: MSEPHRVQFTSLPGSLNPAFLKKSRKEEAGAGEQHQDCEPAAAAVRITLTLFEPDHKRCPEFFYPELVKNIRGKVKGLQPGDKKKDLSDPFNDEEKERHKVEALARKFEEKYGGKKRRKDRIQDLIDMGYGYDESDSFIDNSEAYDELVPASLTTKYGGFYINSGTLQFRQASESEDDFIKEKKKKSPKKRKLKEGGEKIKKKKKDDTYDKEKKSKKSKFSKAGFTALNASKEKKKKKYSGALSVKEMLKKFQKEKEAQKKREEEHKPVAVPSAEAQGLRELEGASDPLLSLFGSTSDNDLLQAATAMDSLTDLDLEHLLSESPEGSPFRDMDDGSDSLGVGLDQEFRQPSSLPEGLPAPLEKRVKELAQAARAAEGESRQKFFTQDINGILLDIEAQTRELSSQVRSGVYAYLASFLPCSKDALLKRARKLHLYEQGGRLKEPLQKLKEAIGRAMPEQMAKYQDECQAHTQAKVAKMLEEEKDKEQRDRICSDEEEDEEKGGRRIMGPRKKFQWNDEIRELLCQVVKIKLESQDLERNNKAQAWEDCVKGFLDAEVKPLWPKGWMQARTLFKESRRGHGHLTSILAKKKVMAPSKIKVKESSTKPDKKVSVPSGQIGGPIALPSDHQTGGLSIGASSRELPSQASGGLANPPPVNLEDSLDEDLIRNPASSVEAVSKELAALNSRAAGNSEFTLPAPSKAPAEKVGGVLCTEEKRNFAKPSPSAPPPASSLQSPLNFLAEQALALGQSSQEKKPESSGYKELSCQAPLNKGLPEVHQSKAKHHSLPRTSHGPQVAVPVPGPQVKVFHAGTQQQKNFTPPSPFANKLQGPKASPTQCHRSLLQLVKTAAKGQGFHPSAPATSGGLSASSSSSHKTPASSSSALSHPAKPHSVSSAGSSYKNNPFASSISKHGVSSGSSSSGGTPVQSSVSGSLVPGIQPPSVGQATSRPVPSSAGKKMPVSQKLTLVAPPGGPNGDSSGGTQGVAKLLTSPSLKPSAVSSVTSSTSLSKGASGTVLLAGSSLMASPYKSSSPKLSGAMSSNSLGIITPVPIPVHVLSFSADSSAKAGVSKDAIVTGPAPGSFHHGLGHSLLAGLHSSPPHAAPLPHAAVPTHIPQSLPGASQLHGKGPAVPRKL
UniProt P54198: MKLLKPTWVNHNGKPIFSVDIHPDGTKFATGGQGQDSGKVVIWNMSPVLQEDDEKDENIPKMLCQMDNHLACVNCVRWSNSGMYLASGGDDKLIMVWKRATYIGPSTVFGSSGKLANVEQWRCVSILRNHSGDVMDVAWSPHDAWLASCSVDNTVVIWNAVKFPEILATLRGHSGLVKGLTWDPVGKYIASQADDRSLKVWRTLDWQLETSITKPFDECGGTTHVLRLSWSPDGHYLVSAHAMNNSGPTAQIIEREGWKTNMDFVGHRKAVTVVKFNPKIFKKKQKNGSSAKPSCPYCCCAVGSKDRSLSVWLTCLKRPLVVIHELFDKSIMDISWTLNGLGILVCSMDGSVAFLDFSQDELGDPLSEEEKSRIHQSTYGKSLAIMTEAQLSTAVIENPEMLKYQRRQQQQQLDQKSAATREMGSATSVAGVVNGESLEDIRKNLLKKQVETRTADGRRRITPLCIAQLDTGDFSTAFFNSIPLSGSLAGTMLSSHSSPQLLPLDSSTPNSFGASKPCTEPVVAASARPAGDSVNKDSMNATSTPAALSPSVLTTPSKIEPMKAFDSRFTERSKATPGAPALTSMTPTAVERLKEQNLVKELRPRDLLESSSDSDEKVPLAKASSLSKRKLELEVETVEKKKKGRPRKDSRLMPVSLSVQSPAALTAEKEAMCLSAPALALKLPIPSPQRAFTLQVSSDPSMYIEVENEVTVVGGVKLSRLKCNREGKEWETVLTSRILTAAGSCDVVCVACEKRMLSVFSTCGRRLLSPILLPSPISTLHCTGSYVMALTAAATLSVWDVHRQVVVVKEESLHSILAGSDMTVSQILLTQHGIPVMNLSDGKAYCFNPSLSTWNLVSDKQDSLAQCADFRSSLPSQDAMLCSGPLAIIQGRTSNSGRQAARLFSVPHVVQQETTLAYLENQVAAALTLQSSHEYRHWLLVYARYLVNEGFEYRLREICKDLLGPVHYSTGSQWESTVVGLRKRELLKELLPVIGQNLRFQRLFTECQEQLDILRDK
GST-HIRA (1–481): residues 1-481 of P54198
UniProt Q6ZU65, residues 109-1315: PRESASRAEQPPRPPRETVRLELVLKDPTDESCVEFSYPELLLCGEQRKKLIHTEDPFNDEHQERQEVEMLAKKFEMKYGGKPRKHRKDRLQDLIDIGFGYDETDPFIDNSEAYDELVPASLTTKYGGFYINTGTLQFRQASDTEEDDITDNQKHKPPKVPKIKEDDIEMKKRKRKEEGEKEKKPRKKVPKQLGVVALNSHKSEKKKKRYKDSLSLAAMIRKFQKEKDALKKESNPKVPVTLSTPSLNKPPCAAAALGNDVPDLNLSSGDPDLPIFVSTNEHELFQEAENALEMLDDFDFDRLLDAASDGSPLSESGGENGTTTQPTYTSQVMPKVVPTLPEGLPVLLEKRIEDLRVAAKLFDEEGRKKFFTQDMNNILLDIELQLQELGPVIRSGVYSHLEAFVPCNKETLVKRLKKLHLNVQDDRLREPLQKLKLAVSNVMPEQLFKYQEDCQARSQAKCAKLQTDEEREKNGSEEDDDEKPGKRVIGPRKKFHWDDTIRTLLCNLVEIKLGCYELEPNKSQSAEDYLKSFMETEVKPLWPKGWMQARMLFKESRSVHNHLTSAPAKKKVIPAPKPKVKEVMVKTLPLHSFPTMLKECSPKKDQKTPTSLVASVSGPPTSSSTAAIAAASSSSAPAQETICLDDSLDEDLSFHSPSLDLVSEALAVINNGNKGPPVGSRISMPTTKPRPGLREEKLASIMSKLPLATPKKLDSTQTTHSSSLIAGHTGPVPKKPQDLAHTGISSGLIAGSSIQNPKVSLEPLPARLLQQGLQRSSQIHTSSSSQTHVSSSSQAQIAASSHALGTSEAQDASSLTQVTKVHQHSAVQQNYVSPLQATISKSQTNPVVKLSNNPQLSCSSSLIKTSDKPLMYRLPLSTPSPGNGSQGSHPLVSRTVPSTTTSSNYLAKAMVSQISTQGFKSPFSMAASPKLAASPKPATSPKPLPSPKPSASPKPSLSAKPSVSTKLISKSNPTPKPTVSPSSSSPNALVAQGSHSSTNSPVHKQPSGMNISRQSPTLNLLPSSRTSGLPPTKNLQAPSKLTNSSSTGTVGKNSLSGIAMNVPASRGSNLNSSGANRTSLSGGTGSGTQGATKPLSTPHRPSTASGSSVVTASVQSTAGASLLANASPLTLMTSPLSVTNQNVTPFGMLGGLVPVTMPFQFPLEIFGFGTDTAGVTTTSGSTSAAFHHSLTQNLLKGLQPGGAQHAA

Key:
[1] = molecular target: Flag-UBN1 F138A/I139A/D140A (human) (UniProt Q9NPG3); assay: co-IP; HEK293T cells (wild type or HIRA knockout) transfected with Flag-tagged and HA-tagged plasmids, in some panels also Myc-tagged HIRA, UBN1, Cabin1 or Asf1a; lysed in RIPA buffer (50 mM Tris-HCl pH 7.6, 150 mM NaCl, 1 mM EDTA, 0.1% Nonidet P-40, 10% glycerol); anti-Flag M2 agarose overnight at 4 °C; Western blot
Flag-UBN1 (human) = Flag-UBN1 (human) (UniProt Q9NPG3); assay: as above
GST-HIRA (1–481) (human) = GST-HIRA (1–481) (human) (UniProt P54198); assay: co-purification; GST-HIRA (1–481) and His-UBN1 (1–213) co-expressed in Sf9 insect cells (baculovirus); the complex purified by GST tag
[2] = molecular target: exogenous UBN1 in HEK293T cells (co-IP with UBN2) (human) (UniProt Q9NPG3); assay: co-IP; HEK293T cells (wild type or HIRA knockout) transfected with Flag-tagged and HA-tagged plasmids, in some panels also Myc-tagged HIRA, UBN1, Cabin1 or Asf1a; lysed in RIPA buffer (50 mM Tris-HCl pH 7.6, 150 mM NaCl, 1 mM EDTA, 0.1% Nonidet P-40, 10% glycerol); anti-Flag M2 agarose overnight at 4 °C; Western blot

binding [1]: binds
binding (Flag-UBN1 (human)): binds
Substance: Myc-HIRA (from UniProt P54198 1-1017)

binding (GST-HIRA (1–481) (human)): binds
Substance: His-UBN1 (1–213) (from UniProt Q9NPG3 1-213) (domain or fragment)

binding [2]: no binding
Substance: exogenous UBN2 in HEK293T cells (co-IP with UBN1) (from UniProt Q6ZU65 109-1315) (domain or fragment)
